Reference: PMC11862924, “Phenylpyrazoles as Inhibitors of the m^6A RNA-Binding Protein YTHDF2” (JACS Au, 2025)

Assays:
YTHDF2 YTH domain = target: T1, YTHDF2 YTH domain (UniProt Q9Y5A9); assay: FP competition; settings: against FAM-m6A RNA, no inhibitory activity; none; EMSA: 20 mM HEPES pH 8.2, 50 mM NaCl, 0.05% Triton X-100, 5% glycerol, 4 C, 0.5x TBE gel; recombinant …; residues 383-553; protein details: N-terminal His6 and GST; letters put together from the description
T1 sequence (looked up): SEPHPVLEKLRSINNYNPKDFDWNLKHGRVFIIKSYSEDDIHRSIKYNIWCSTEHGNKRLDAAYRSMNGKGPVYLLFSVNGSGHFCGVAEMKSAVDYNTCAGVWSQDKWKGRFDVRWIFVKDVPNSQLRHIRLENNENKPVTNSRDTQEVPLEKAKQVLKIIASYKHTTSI

YTHDC2 YTH domain = target: T2, YTHDC2 YTH domain (UniProt Q9H6S0); assay: EMSA; settings: 20 nM RNA, 10 uM YTHDC2 chosen; m6A at position 12; EMSA: 20 mM HEPES pH 8.2, 50 mM NaCl, 0.05% Triton X-100, 5% glycerol, 4 C, 0.5x TBE gel; recombinant protein; residues 1285-1424
T2 sequence (looked up): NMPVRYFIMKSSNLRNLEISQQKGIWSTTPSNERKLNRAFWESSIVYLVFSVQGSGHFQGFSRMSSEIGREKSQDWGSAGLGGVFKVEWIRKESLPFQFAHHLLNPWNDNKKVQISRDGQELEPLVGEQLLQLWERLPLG

Row | Sequence | binding result (YTHDF2 YTH domain) | binding result (YTHDC2 YTH domain)
1 | UUCUUCUGUGGACUGUG [unmethylated RNA (A RNA)] | no binding | –
2 | UUCUUCUGUGGACUGUG [FAM-17mer m6A RNA probe] | – | binds

The exact form of at least one protein or probe is not confirmed. For some assays here: No signal at the amounts used counts as a negative. Tags and fusion partners may be left off the protein sequences shown. For some assays here: At least one verdict rests on a figure or table, not on a statement of the authors.
